In this test the test system is BDF1 mice, B16 melanoma ip, median survival T/C. Nature of the test: NCI In Vivo Anticancer Drug Screen. Data for tumor model B16 Melanoma (intraperitoneal) in B6D2F1 (BDF1) mice. Conditions: T/C endpoint: median survival time, higher T/C = longer survival. In a few lines: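 Mice with transplantable tumors; drug vs vehicle groups; endpoint survival or tumor size; value = T/C.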

[1] abbreviates: dose: 100.0 mg/kg/injection, schedule: Q01DX009 (ip), vehicle: Klucel (hydroxypropylcellulose) (HPC).
[2] abbreviates: dose: 200.0 mg/kg/injection, schedule: Q01DX009 (ip), vehicle: Klucel (hydroxypropylcellulose) (HPC).
Setting [3] is: dose: 32.0 mg/kg/injection, schedule: Q01DX009 (ip), vehicle: saline with Tween-80.
The mark [4] stands for this setting: dose: 512.0 mg/kg/injection, schedule: Q04DX003 (ip), vehicle: saline with Tween-80.

This passage reports survivor count and T/C results from PubChem BioAssay AID192 (DTP/NCI, 2004).

The list shows only some results of the screen, not a fair sample: it is rich in T/C values a quarter to a half above the control, in often repeated tests (any T/C) and in doses without a T/C. Other doses and runs of a compound stand elsewhere. T/C is the treated group as % of the vehicle group. Some entries give survivors of the animals treated and no T/C: the source files T/C as zero there, which appears to mark a toxic dose or a test without result, not a measured value. Some doses without a T/C left all or most animals alive at the check, yet need not have been tolerated: survival well below the control is almost never listed, so the zero probably covers shortened survival too. Survivors were counted at the toxicity check, usually on the fifth day, unless a day is given; later deaths do not show. Schedules are NCI's codes, taken here to give the interval after Q, in days (D) or hours (H), and the number of doses after X. Some entries hold several experiments; the results are listed from low to high. For survival time, the PubChem record calls one and a half times the control and up active, and a quarter to a half above the control has no call in these data; cut-offs in other NCI protocols can differ.

Turning to `Nc1ncnc2c1c1c(=O)[nH]cnc1n2C1OC(CO)C(O)C1O` (configuration not stated), the survivor count is listed as 10 of 10 (dose: 12.5 mg/kg/injection, schedule: Q01DX009 (ip), vehicle: Klucel (hydroxypropylcellulose) (HPC)); 10 of 10 (dose: 25.0 mg/kg/injection, schedule: Q01DX009 (ip), vehicle: Klucel (hydroxypropylcellulose) (HPC)); 10 of 10 under setting [1].

Consider `O=CC=O`, for which, where the note is “dose: 200.0 mg/kg/injection, schedule: Q01DX009 (ip), vehicle: saline with Tween-80”, the T/C is 128 % of control. In addition, the survivor count (dose: 400.0 mg/kg/injection, schedule: Q01DX009 (ip), vehicle: saline with Tween-80) was 0 of 10.

Take `CS(=O)(=O)OCC1CCCCO1` (configuration not stated): the survivor count (dose: 200.0 mg/kg/injection, schedule: Q04DX003 (ip), vehicle: Klucel (hydroxypropylcellulose) (HPC)) is on record as 6 of 10.

As for `NC(=O)c1nn(C2OC(CO)C(O)C2O)c2ncnc(N)c12` (configuration not stated), the survivor count reads like this: (dose: 50.0 mg/kg/injection, schedule: Q01DX009 (ip), vehicle: Klucel (hydroxypropylcellulose) (HPC)) 3 of 10; under setting [1], 0 of 10; under setting [2], 0 of 10.

As for `COc1ccc2[nH]c3ccc4cc[n+](CCN5CCC(C6CCN(CC[n+]7ccc8ccc9[nH]c%10ccc(OC)cc%10c9c8c7)CC6)CC5)cc4c3c2c1`, the survivor count under setting [2] is 10 of 10.

As to `C=C1CCN(c2ccccc2)C1=O`, the T/C (dose: 32.0 mg/kg/injection, schedule: Q01DX009 (ip), vehicle: saline + alcohol) is 129 % of control.

In the case of `CN(C)CCC=C1c2ccccc2CCc2ccccc21`, the survivor count (dose: 50.0 mg/kg/injection, schedule: Q01DX009 (ip), vehicle: saline) was 6 of 10.

For the compound `CC(CN1CC(=O)NC(=O)C1)N1CC(=O)NC(=O)C1` (configuration not stated), the T/C is, setting by setting: (dose: 4.0 mg/kg/injection, schedule: Q03HX024 (ip), vehicle: saline) 136 % of control; (dose: 15.0 mg/kg/injection, schedule: Q01DX009 (oral), vehicle: saline) 131 % of control; (dose: 16.0 mg/kg/injection, schedule: Q01DX009 (ip), vehicle: Klucel (hydroxypropylcellulose) (HPC)) 125 % of control; (dose: 16.0 mg/kg/injection, schedule: Q01DX009 (ip), vehicle: saline) 128 % of control; under setting [3], 136 % of control; (dose: 32.0 mg/kg/injection, schedule: Q01DX009 (ip), vehicle: saline) 136 % of control. Besides, the T/C (dose: 64.0 mg/kg/injection, schedule: Q01DX009 (ip), vehicle: saline) is 131 % of control; the T/C (dose: 128.0 mg/kg/injection, schedule: Q01DX009 (ip), vehicle: saline) is 139 % of control; the T/C (dose: 128.0 mg/kg/injection, schedule: Q04DX003 (ip), vehicle: saline with Tween-80) is 126 % of control; the T/C (dose: 256.0 mg/kg/injection, schedule: Q04DX003 (ip), vehicle: saline with Tween-80) was 135 and 141 % of control; the T/C (dose: 256.0 mg/kg/injection, schedule: Q04DX003 (ip), vehicle: saline) was 147 % of control; the T/C (dose: 400.0 mg/kg/injection, schedule: Q04DX003 (ip), vehicle: Klucel (hydroxypropylcellulose) (HPC)) was 127 % of control. Besides, the T/C under setting [4] is 132 % of control. Moreover, the survivor count reads like this: (dose: 8.0 mg/kg/injection, schedule: Q03HX024 (ip), vehicle: saline) 9 of 10; (dose: 16.0 mg/kg/injection, schedule: Q01DX009 (ip), vehicle: saline with Tween-80) 8 of 10; (dose: 16.0 mg/kg/injection, schedule: Q03HX024 (ip), vehicle: saline) 10 of 10; under setting [3], 9 of 10; (dose: 32.0 mg/kg/injection, schedule: Q03HX024 (ip), vehicle: saline) 10 of 10; (dose: 60.0 mg/kg/injection, schedule: Q01DX009 (ip), vehicle: saline) 5 of 6. Further, the survivor count by setting is: (dose: 60.0 mg/kg/injection, schedule: Q01DX009 (oral), vehicle: saline) 6 of 6; (dose: 64.0 mg/kg/injection, schedule: Q01DX009 (ip), vehicle: saline with Tween-80) 8 of 10, 9 of 10, 10 of 10; (dose: 64.0 mg/kg/injection, schedule: Q03HX024 (ip), vehicle: saline) 7 of 10; (dose: 120.0 mg/kg/injection, schedule: Q01DX009 (oral), vehicle: saline) 6 of 6; (dose: 128.0 mg/kg/injection, schedule: Q01DX009 (ip), vehicle: saline with Tween-80) 9 of 10 and 10 of 10; (dose: 128.0 mg/kg/injection, schedule: Q03HX024 (ip), vehicle: saline) 7 of 10. Also, the survivor count is given as 10 of 10 (dose: 240.0 mg/kg/injection, schedule: Q01DX009 (ip), vehicle: saline with Tween-80); 6 of 6 (dose: 240.0 mg/kg/injection, schedule: Q01DX009 (oral), vehicle: saline); 10 of 10 (dose: 256.0 mg/kg/injection, schedule: Q01DX009 (ip), vehicle: Klucel (hydroxypropylcellulose) (HPC)); 8 of 10 (dose: 256.0 mg/kg/injection, schedule: Q01DX009 (ip), vehicle: saline with Tween-80); 8 of 10 (dose: 512.0 mg/kg/injection, schedule: Q01DX009 (ip), vehicle: Klucel (hydroxypropylcellulose) (HPC)); 9 of 10 under setting [4]. For the same compound, the survivor count (dose: 512.0 mg/kg/injection, schedule: Q04DX003 (ip), vehicle: saline) is recorded as 6 of 10; the survivor count (dose: 800.0 mg/kg/injection, schedule: Q04DX003 (ip), vehicle: Klucel (hydroxypropylcellulose) (HPC)) is reported as 10 of 10; the survivor count (dose: 1024.0 mg/kg/injection, schedule: Q04DX003 (ip), vehicle: saline with Tween-80) is 8 of 10; the survivor count (dose: 1024.0 mg/kg/injection, schedule: Q04DX003 (ip), vehicle: saline) was 3 of 10.
